Some of the results follow.
Key:
Experiment in all cases: log2 fold change, soluble protein after heating vs DMSO (PISA); higher = thermal stabilisation; K562 lysate, 10 uM; active = over 0.2 and 3.5 SD of the protein, either way, in both replicates (recomputed)
alvocidib = compound: CN1CC[C@H](c2c(O)cc(O)c3c(=O)cc(-c4ccccc4Cl)oc23)[C@H](O)C1 [alvocidib]
Method in brief: (§1)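 K562 pellets were dounce-homogenised in PBS pH 7.4 with 1 mM MgCl2, and the crude extract at 1 mg/mL protein was treated with 10 μM compound for 30 min. Aliquots were heated for 3 min across 48°C-58°C, pooled, and brought to 0.5% NP-40 at 4°C; soluble protein was the supernatant after 21,000xg for 90 min. Soluble protein was quantified by TMTpro 16plex LC-MS/MS with channel sums equalised, and reported as log2 fold change in thermal stability against DMSO controls, with values from duplicates.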

By UniProt entry, the sequences of proteins in these tests, tags left out. Where a name states a change or a piece, a line headed by the entry shows the natural chain unless it says otherwise.
UniProt Q96P48: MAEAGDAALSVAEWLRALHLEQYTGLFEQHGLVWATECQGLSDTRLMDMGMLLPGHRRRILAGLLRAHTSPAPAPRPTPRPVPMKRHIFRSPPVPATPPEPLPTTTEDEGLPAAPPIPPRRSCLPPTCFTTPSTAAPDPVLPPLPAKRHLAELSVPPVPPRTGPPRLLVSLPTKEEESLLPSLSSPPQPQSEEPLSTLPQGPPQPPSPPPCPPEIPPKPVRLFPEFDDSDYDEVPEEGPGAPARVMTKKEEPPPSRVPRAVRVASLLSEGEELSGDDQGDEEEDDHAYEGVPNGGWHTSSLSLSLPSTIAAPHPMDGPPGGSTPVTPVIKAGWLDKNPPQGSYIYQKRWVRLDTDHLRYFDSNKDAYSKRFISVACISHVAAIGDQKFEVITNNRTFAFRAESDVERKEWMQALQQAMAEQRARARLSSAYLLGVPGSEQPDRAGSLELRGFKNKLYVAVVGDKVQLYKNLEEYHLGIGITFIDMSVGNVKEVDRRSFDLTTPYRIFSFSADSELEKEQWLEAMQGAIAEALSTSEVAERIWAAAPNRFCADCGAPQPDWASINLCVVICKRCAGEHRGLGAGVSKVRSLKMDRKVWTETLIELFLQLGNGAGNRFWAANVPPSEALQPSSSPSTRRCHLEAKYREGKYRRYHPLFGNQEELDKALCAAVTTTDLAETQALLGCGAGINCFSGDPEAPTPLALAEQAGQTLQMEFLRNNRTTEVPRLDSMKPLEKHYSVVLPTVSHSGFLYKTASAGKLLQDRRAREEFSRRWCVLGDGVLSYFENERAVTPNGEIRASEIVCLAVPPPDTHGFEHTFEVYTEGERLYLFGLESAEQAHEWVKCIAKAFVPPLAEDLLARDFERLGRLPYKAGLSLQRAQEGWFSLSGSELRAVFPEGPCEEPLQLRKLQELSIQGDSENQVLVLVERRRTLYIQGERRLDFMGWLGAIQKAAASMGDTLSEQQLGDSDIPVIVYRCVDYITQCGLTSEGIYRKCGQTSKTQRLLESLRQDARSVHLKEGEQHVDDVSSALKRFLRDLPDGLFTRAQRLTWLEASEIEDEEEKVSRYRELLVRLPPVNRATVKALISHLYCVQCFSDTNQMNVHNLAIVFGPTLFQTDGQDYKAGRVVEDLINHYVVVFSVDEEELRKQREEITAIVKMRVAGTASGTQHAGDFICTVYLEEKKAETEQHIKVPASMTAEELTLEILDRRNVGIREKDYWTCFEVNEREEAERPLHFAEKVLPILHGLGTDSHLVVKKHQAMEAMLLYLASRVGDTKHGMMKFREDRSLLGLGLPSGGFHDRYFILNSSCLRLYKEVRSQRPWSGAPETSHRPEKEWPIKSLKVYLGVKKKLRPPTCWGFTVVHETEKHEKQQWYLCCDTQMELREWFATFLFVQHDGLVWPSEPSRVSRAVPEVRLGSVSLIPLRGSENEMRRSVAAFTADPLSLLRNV
UniProt Q8IVW6: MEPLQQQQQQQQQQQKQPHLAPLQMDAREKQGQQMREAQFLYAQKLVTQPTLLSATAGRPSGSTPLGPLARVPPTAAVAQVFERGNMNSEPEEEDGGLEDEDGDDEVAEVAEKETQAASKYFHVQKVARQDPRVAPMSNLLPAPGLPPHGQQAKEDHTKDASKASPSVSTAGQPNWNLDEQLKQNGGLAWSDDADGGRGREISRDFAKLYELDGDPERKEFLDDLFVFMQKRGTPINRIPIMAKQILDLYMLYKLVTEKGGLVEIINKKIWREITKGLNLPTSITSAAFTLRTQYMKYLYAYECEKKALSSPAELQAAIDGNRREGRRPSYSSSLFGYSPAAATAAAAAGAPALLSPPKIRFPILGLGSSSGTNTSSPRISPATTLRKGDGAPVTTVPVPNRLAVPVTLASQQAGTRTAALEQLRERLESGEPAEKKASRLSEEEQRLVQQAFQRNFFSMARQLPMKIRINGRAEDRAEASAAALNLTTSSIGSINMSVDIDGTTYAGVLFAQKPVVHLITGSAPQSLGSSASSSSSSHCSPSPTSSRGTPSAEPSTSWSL
UniProt Q66PJ3: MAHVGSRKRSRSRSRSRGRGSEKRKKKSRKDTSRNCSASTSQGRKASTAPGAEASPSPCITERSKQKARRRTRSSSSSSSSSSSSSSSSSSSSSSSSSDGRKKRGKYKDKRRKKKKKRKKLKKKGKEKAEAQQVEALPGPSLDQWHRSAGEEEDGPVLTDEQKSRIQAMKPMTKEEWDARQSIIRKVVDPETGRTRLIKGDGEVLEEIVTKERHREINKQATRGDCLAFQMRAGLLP
UniProt Q15041, whole entry, looked up: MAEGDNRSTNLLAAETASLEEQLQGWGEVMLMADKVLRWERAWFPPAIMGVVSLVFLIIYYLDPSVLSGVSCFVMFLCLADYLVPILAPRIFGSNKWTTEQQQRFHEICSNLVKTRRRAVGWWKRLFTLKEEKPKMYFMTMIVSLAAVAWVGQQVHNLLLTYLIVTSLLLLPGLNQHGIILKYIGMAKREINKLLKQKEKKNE
UniProt Q8N2F6: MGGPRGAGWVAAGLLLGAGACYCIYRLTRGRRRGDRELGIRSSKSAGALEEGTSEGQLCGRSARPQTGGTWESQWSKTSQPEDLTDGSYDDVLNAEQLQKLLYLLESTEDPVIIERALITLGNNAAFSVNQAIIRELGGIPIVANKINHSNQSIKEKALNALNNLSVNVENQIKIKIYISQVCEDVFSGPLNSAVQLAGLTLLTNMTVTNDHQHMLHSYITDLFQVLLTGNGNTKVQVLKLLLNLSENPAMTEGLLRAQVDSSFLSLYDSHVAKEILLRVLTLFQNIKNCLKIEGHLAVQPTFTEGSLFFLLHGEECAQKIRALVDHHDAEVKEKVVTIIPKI
UniProt P02654: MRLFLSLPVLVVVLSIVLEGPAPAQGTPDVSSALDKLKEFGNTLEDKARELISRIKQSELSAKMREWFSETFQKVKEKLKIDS
UniProt Q9Y6D5: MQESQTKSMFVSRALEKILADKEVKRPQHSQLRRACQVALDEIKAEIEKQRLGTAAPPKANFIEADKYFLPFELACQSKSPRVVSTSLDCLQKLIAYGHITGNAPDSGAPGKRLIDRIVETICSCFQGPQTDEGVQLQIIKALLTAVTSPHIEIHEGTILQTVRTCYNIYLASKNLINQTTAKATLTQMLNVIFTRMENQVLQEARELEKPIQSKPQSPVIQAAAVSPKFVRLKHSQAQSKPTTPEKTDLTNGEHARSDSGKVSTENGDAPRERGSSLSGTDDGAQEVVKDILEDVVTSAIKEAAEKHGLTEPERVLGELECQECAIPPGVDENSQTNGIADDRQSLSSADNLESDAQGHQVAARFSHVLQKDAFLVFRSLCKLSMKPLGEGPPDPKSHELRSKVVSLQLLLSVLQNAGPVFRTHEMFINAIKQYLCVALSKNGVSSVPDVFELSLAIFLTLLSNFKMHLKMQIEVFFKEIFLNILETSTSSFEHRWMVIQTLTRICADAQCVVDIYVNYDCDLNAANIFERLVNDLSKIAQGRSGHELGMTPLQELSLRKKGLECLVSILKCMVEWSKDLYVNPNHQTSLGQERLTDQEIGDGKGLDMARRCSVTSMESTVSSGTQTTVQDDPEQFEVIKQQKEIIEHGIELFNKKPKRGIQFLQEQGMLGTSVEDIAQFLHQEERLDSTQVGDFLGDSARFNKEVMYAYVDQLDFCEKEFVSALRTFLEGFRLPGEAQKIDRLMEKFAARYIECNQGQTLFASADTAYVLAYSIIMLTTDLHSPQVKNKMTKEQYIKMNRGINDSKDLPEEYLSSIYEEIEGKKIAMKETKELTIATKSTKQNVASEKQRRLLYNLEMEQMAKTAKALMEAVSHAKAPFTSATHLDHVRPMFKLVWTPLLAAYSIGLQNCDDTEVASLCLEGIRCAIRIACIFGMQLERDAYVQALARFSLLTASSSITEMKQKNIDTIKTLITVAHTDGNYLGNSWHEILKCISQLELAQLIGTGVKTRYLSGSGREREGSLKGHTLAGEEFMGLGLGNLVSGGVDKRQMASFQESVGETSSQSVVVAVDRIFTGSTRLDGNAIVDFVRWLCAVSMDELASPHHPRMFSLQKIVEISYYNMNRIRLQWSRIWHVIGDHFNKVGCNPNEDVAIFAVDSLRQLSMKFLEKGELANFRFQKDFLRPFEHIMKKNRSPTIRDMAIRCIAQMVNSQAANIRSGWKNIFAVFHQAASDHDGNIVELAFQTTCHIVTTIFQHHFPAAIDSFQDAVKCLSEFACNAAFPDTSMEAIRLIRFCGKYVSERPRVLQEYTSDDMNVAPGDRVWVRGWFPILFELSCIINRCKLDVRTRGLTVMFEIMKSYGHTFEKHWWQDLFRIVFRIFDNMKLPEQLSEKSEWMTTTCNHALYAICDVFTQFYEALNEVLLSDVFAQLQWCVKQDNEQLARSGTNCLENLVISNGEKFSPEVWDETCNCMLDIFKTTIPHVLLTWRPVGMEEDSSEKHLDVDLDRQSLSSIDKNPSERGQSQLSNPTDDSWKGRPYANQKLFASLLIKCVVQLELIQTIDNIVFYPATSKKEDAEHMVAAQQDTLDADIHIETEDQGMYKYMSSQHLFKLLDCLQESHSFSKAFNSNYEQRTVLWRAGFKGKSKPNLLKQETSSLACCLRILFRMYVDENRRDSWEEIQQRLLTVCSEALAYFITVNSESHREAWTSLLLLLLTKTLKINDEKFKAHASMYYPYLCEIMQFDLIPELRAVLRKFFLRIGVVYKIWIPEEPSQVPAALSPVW
UniProt Q9NRW3: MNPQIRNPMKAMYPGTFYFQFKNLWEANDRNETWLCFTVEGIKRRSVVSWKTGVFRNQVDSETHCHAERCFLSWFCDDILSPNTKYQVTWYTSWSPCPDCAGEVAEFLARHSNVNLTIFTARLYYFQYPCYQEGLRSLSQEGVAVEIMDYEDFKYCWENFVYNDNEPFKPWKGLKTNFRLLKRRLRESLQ
UniProt O15085: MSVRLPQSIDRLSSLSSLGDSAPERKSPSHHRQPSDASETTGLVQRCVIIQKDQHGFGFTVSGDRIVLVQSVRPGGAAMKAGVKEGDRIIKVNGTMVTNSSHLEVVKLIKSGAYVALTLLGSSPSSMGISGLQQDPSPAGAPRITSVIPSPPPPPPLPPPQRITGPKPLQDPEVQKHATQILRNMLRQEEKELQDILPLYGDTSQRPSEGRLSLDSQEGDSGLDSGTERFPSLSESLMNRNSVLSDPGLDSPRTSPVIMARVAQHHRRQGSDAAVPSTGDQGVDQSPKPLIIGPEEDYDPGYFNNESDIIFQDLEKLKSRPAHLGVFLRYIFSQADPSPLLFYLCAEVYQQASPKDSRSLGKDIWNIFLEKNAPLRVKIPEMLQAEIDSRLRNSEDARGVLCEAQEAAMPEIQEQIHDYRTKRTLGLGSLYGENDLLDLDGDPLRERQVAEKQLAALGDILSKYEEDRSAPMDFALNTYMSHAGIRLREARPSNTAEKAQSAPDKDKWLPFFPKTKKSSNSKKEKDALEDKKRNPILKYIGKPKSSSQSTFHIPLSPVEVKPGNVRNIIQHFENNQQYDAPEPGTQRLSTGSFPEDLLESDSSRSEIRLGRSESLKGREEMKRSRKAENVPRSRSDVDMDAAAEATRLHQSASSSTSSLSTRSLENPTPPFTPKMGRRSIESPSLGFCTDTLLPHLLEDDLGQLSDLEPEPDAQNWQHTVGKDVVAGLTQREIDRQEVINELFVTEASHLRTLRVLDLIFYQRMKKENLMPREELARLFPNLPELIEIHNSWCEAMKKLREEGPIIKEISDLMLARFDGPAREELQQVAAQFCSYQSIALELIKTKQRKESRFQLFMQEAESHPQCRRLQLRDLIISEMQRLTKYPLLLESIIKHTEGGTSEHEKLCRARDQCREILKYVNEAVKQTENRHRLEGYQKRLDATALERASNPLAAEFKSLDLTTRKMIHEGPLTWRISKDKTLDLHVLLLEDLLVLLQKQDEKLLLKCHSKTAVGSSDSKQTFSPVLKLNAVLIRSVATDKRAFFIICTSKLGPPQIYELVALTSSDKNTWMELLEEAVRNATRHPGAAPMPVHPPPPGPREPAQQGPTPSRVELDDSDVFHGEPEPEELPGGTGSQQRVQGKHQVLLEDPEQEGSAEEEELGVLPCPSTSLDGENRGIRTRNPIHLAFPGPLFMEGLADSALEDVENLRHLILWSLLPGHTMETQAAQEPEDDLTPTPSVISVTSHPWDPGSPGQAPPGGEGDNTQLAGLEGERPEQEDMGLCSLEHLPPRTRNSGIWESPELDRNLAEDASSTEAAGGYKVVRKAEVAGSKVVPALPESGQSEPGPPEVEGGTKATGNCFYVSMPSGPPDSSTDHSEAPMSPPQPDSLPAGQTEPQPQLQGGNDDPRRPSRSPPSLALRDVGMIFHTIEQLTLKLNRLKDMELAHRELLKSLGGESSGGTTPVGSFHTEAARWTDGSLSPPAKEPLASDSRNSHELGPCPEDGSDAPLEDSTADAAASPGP
UniProt P36405: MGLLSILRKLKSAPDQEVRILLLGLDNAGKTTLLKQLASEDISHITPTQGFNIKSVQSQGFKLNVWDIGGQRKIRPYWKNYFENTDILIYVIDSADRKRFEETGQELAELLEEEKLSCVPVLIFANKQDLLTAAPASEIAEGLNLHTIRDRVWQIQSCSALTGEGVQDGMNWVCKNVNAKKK

Tubastatin A = compound: CN1CCc2c(c3ccccc3n2Cc2ccc(C(=O)NO)cc2)C1 [Tubastatin A]
Method in brief: as §1

[1] = compound: CNC(=O)C1=CC=CC=C1NC2=NC(=NC=C2Cl)NC3=C(C=C(C=C3)N4CCOCC4)OC
Method in brief: as §1

defactinib = compound: CNC(=O)c1ccc(Nc2ncc(C(F)(F)F)c(NCc3nccnc3N(C)S(C)(=O)=O)n2)cc1 [defactinib]
Method in brief: as §1

[2] = compound: CNc1nc(-c2ccc3c(N)n[nH]c3c2)cc(N2C[C@@H](C(=O)NC3CCCCC3)CC[C@H]2C)n1
Method in brief: as §1

encorafenib = compound: COC(=O)N[C@@H](C)CNc1nccc(-c2cn(C(C)C)nc2-c2cc(Cl)cc(NS(C)(=O)=O)c2F)n1 [encorafenib]
Method in brief: as §1

[3] = compound: COC(=O)[C@H](CCSC)NC(=O)C1=C(C=C(C=C1)NC[C@H](CS)N)C2=CC=CC=C2
Method in brief: as §1

alisertib = compound: COc1cc(Nc2ncc3c(n2)-c2ccc(Cl)cc2C(c2c(F)cccc2OC)=NC3)ccc1C(=O)O [alisertib]
Method in brief: as §1

[4] = compound: COc1cc2nc(-c3cc(F)ccc3O)nc(N[C@@H]3CNC[C@H]3C(C)(C)O)c2cc1OC
Method in brief: as §1

gefitinib = compound: COc1cc2ncnc(Nc3ccc(F)c(Cl)c3)c2cc1OCCCN1CCOCC1 [gefitinib]
Method in brief: as §1

lapatinib = compound: CS(=O)(=O)CCNCc1ccc(-c2ccc3ncnc(Nc4ccc(OCc5cccc(F)c5)c(Cl)c4)c3c2)o1 [lapatinib]
Method in brief: as §1

pictilisib = compound: CS(=O)(=O)N1CCN(Cc2cc3nc(-c4cccc5[nH]ncc45)nc(N4CCOCC4)c3s2)CC1 [pictilisib]
Method in brief: as §1

crizotinib = compound: C[C@@H](Oc1cc(-c2cnn(C3CCNCC3)c2)cnc1N)c1c(Cl)ccc(F)c1Cl [crizotinib]
Method in brief: as §1

[5] = compound: C[C@H](C1=CC=C(C=C1)C(=O)NC2=C3C=CNC3=NC=C2)N
Method in brief: as §1

duvelisib = compound: C[C@H](Nc1ncnc2nc[nH]c12)c1cc2cccc(Cl)c2c(=O)n1-c1ccccc1 [duvelisib]
Method in brief: as §1

gandotinib = compound: Cc1cc(Nc2cc(CN3CCOCC3)c3nc(C)c(Cc4ccc(Cl)cc4F)n3n2)n[nH]1 [gandotinib]
Method in brief: as §1

tozasertib = compound: Cc1cc(Nc2cc(N3CCN(C)CC3)nc(Sc3ccc(NC(=O)C4CC4)cc3)n2)n[nH]1 [tozasertib]
Method in brief: as §1

doramapimod = compound: Cc1ccc(-n2nc(C(C)(C)C)cc2NC(=O)Nc2ccc(OCCN3CCOCC3)c3ccccc23)cc1 [doramapimod]
Method in brief: as §1

bafetinib = compound: Cc1ccc(NC(=O)c2ccc(CN3CC[C@H](N(C)C)C3)c(C(F)(F)F)c2)cc1Nc1nccc(-c2cncnc2)n1 [bafetinib]
Method in brief: as §1

[6] = compound: Cc1cccc(CC(=O)N2CCc3c2ccc(-c2cn(C)c4ncnc(N)c24)c3F)n1
Method in brief: as §1

Measured: log2 fold change

ARAP1 (UniProt Q96P48)
inactive: alvocidib -0.027 | Tubastatin A -0.135 | [1] 0.033 | defactinib 0.075 | [2] 0.017 | encorafenib 0.06 | [3] 0.078 | alisertib 0.015 | [4] 0.003 | gefitinib 0.041 | lapatinib -0.022 | pictilisib -0.046 | crizotinib -0.065 | [5] -0.03 | duvelisib -0.002 | gandotinib 0.014 | tozasertib -0.005 | doramapimod 0.063 | bafetinib -0.016 | [6] 0.034

ARID3B (UniProt Q8IVW6)
inactive: alvocidib -0.112 | Tubastatin A -0.036 | [1] 0.013 | defactinib 0.154 | [2] 0.04 | encorafenib 0.078 | [3] 0.027 | alisertib 0.064 | [4] 0.009 | gefitinib -0.039 | lapatinib 0.049 | pictilisib -0.017 | crizotinib 0.028 | [5] -0.155 | duvelisib -0.034 | gandotinib -0.037 | tozasertib -0.029 | doramapimod -0.005 | bafetinib 0.022 | [6] 0.166

ARHGEF18 (UniProt Q6ZSZ5)
inactive: alvocidib -0.084 | Tubastatin A 0.037 | [1] -0.003 | defactinib 0.027 | [2] -0.04 | encorafenib -0.01 | [3] 0.099 | alisertib 0.058 | [4] -0.027 | gefitinib 0.039 | lapatinib -0.014 | pictilisib 0.011 | crizotinib -0.04 | [5] -0.084 | duvelisib 0.034 | gandotinib 0.068 | tozasertib 0.024 | doramapimod 0.061 | bafetinib -0.014 | [6] 0.098

Random excerpt: two entries already listed
ARID3B (UniProt Q8IVW6)
inactive: alvocidib -0.112 | Tubastatin A -0.036 | [1] 0.013 | defactinib 0.154 | [2] 0.04 | encorafenib 0.078 | [3] 0.027 | alisertib 0.064 | [4] 0.009 | gefitinib -0.039 | lapatinib 0.049 | pictilisib -0.017 | crizotinib 0.028 | [5] -0.155 | duvelisib -0.034 | gandotinib -0.037 | tozasertib -0.029 | doramapimod -0.005 | bafetinib 0.022 | [6] 0.166

ARAP1 (UniProt Q96P48)
inactive: alvocidib -0.027 | Tubastatin A -0.135 | [1] 0.033 | defactinib 0.075 | [2] 0.017 | encorafenib 0.06 | [3] 0.078 | alisertib 0.015 | [4] 0.003 | gefitinib 0.041 | lapatinib -0.022 | pictilisib -0.046 | crizotinib -0.065 | [5] -0.03 | duvelisib -0.002 | gandotinib 0.014 | tozasertib -0.005 | doramapimod 0.063 | bafetinib -0.016 | [6] 0.034

(next part)

ARL6IP4 (UniProt Q66PJ3)
inactive: alvocidib -0.045 | Tubastatin A 0.034 | [1] 0.082 | defactinib 0.026 | [2] 0.077 | encorafenib 0.044 | [3] -0.016 | alisertib -0.039 | [4] 0.005 | gefitinib 0.015 | lapatinib 0.018 | pictilisib 0.033 | crizotinib 0.085 | [5] -0.094 | duvelisib -0.02 | gandotinib 0.09 | tozasertib -0.06 | doramapimod -0.014 | bafetinib 0.041 | [6] -0.044

ARL6IP1 (UniProt Q15041)
inactive: alvocidib -0.013 | Tubastatin A 0.009 | [1] -0.073 | defactinib -0.046 | [2] 0.061 | encorafenib 0.013 | [3] 0.023 | alisertib -0.021 | [4] 0.029 | gefitinib 0.004 | lapatinib -0.031 | pictilisib 0.177 | crizotinib 0.034 | [5] 0.032 | duvelisib 0.042 | gandotinib 0.024 | tozasertib 0.003 | doramapimod 0.004 | bafetinib 0.254 | [6] -0.001

AP5M1 (UniProt Q9H0R1)
inactive: alvocidib -0.02 | Tubastatin A 0.013 | [1] 0.057 | defactinib 0.021 | [2] -0.083 | encorafenib -0.139 | [3] -0.014 | alisertib 0.022 | [4] -0.051 | gefitinib -0.024 | lapatinib 0.019 | pictilisib -0.448 | crizotinib -0.029 | [5] -0.179 | duvelisib 0 | gandotinib -0.001 | tozasertib 0.029 | doramapimod 0.008 | bafetinib -0.036 | [6] 0.05

API5 (UniProt Q9BZZ5)
inactive: alvocidib -0.078 | Tubastatin A 0.028 | [1] -0.026 | defactinib -0.002 | [2] 0.022 | encorafenib 0.006 | [3] -0.015 | alisertib 0.017 | [4] 0.01 | gefitinib 0.004 | lapatinib -0.04 | pictilisib -0.009 | crizotinib -0.011 | [5] -0.202 | duvelisib 0.015 | gandotinib 0.067 | tozasertib -0.015 | doramapimod 0.006 | bafetinib -0.017 | [6] 0.087

ARMC10 (UniProt Q8N2F6)
inactive: alvocidib 0.025 | Tubastatin A 0.035 | [1] -0.006 | defactinib 0.006 | [2] 0.022 | encorafenib -0.005 | [3] 0.037 | alisertib 0.039 | [4] 0.062 | gefitinib 0.009 | lapatinib -0.011 | pictilisib 0.047 | crizotinib -0.047 | [5] -0.007 | duvelisib -0.022 | gandotinib -0.096 | tozasertib -0.002 | doramapimod -0.01 | bafetinib 0.087 | [6] 0.012

ARFGAP3 (UniProt Q9NP61)
inactive: alvocidib -0.014 | Tubastatin A -0.02 | [1] 0.035 | defactinib -0.005 | [2] 0.059 | encorafenib 0.072 | [3] -0.003 | alisertib 0.019 | [4] 0.01 | gefitinib 0.041 | lapatinib 0.037 | pictilisib 0.037 | crizotinib 0.054 | [5] -0.037 | duvelisib -0.031 | gandotinib 0.104 | tozasertib -0.006 | doramapimod 0.131 | bafetinib -0.028 | [6] -0.011

APOC1 (UniProt P02654)
inactive: alvocidib 0.154 | Tubastatin A -0.107 | [1] -0.089 | defactinib -0.19 | [2] 0.075 | encorafenib 0 | [3] -0.001 | alisertib -0.023 | [4] -0.071 | gefitinib -0.097 | lapatinib 0.068 | pictilisib 0.09 | crizotinib 0.146 | [5] 0.278 | duvelisib -0.007 | gandotinib -0.119 | tozasertib 0.023 | doramapimod -0.005 | bafetinib 0.034 | [6] -0.103

ARFGEF2 (UniProt Q9Y6D5)
inactive: alvocidib 0.018 | Tubastatin A -0.006 | [1] 0.009 | defactinib 0.069 | [2] 0.015 | encorafenib 0.011 | [3] -0.009 | alisertib 0.012 | [4] 0.006 | gefitinib -0.01 | lapatinib -0.016 | pictilisib 0.009 | crizotinib -0.024 | [5] -0.022 | duvelisib -0.01 | gandotinib -0.117 | tozasertib -0.015 | doramapimod 0.011 | bafetinib -0.06 | [6] 0.063

ARHGAP25 isoform 4 (UniProt P42331)
inactive: alvocidib -0.032 | Tubastatin A -0.122 | [1] 0.04 | defactinib 0.055 | [2] 0.054 | encorafenib -0.009 | [3] 0.038 | alisertib 0.012 | [4] -0.004 | gefitinib -0.009 | lapatinib 0.011 | pictilisib -0.024 | crizotinib -0.053 | [5] -0.011 | duvelisib 0.008 | gandotinib -0.024 | tozasertib -0.006 | doramapimod -0.005 | bafetinib -0.075 | [6] 0.081

APBA2 (UniProt Q99767)
inactive: alvocidib -0.068 | Tubastatin A -0.027 | [1] -0.041 | defactinib 0.013 | [2] 0.018 | encorafenib 0.002 | [3] 0.088 | alisertib -0.042 | [4] 0.001 | gefitinib -0.009 | lapatinib -0.009 | pictilisib -0.086 | crizotinib -0.06 | [5] -0.167 | duvelisib -0.048 | gandotinib 0.122 | tozasertib -0.013 | doramapimod -0.009 | bafetinib -0.016 | [6] 0.148

APOBEC3C (UniProt Q9NRW3)
inactive: alvocidib -0.019 | Tubastatin A -0.121 | [1] 0.018 | defactinib 0.013 | [2] -0.007 | encorafenib 0.047 | [3] -0.067 | alisertib 0.009 | [4] 0.003 | gefitinib -0.005 | lapatinib 0.011 | pictilisib 0.033 | crizotinib -0.09 | [5] -0.058 | duvelisib 0.021 | gandotinib 0.066 | tozasertib -0.055 | doramapimod 0.1 | bafetinib -0.023 | [6] 0.153

ARHGEF11 isoform 2 (UniProt O15085)
inactive: alvocidib 0.019 | Tubastatin A 0.093 | [1] -0.075 | defactinib -0.106 | [2] -0.023 | encorafenib 0.007 | [3] 0.059 | alisertib -0.018 | [4] 0.012 | gefitinib 0.077 | lapatinib -0.005 | pictilisib -0.018 | crizotinib -0.006 | [5] -0.011 | duvelisib 0.03 | gandotinib -0.172 | tozasertib -0.039 | doramapimod -0.002 | bafetinib 0.008 | [6] 0.038

ARL3 (UniProt P36405)
inactive: alvocidib -0.007 | Tubastatin A 0.008 | [1] 0.022 | defactinib 0.005 | [2] 0.008 | encorafenib -0.031 | [3] -0.004 | alisertib -0.018 | [4] -0.015 | gefitinib -0.013 | lapatinib -0.024 | pictilisib -0.012 | crizotinib 0.01 | [5] 0.006 | duvelisib -0.002 | gandotinib -0.001 | tozasertib -0.022 | doramapimod 0.01 | bafetinib 0.004 | [6] -0.04

Source: the supplement of paper PMC10849652
